Laboratory results taken from PubChem BioAssay AID248 (DTP/NCI, 2004).
The list does not hold the whole screen: it gathers some chemical classes. Other doses and runs of a compound may be missing. T/C is the treated group as % of the vehicle group. Some entries give survivors of the animals treated and no T/C: the source holds a T/C of zero for them, seemingly a mark for toxic or unscored doses. Some survivor counts are full or nearly so, which does not show that the dose was tolerated: survival well below the control is almost never listed, so the zero probably covers shortened survival too. Survivors were counted at the toxicity check, usually on the fifth day, unless a day is given; later deaths do not show. Schedules are NCI's codes, read here as Q, the interval in days (D) or hours (H), X, the number of doses. Some schedules carry Z or #; the key to these is not given. Some doses were run more than once; the values are given in rising order. Where survival is the endpoint, this PubChem deposit counts one and a half times the control or more as active, and values a quarter to a half above the control carry no call in these data; other NCI protocols may use other cut-offs. Some T/C values carry the count of animals alive at the toxicity check (mostly the fifth day); without a count or a note in brackets, all were alive then.

Test system: L1210 leukemia ip in BDF1 mice, survival T/C
Experiment: NCI In Vivo Anticancer Drug Screen. Data for tumor model L1210 Leukemia (intraperitoneal) in B6D2F1 (BDF1) mice
Conditions: higher T/C = longer survival
[1] = T/C endpoint: mean survival time, dose: 256.0 mg/kg/injection, schedule: Q01DX009 (ip), vehicle: saline

With `NC1CCCCC1.O=P(O)(NCCCO)N(CCCl)CCCl` the survivor count (T/C endpoint: mean survival time, dose: 256.0 mg/kg/injection, schedule: Q01DX005 (ip), vehicle: saline) was 10 of 10, the T/C [1] was 95 % of control [9 of 10 alive] and the survivor count [1] was 9 of 10. For the same molecule, the T/C (T/C endpoint: mean survival time, dose: 256.0 mg/kg/injection, schedule: Q01DX009 (oral), vehicle: saline) was 125 % of control [9 of 10 alive], the T/C (T/C endpoint: mean survival time, dose: 256.0 mg/kg/injection, schedule: Q01DX009 (sc), vehicle: saline) was 92 % of control and the T/C (T/C endpoint: mean survival time, dose: 256.0 mg/kg/injection, schedule: Q04DX003 (ip), vehicle: saline) was 194 % of control. The T/C (T/C endpoint: mean survival time, dose: 256.0 mg/kg/injection, schedule: Q04DX003 (iv), vehicle: saline) was 122 % of control, the T/C (T/C endpoint: mean survival time, dose: 256.0 mg/kg/injection, schedule: Q08DX002 (ip), vehicle: saline) was 156 % of control and the T/C (T/C endpoint: mean survival time, dose: 256.0 mg/kg/injection, schedule: Q## X002 (ip), vehicle: saline) was 144 % of control. For the same molecule, the T/C (T/C endpoint: mean survival time, dose: 256.0 mg/kg/injection, schedule: Q## X003 (ip), vehicle: saline) was 172 % of control, the T/C (T/C endpoint: mean survival time, dose: 256.0 mg/kg/injection, schedule: Q## X008 (ip), vehicle: saline) was 125 % of control and the T/C (T/C endpoint: mean survival time, dose: 256.0 mg/kg/injection, schedule: Q## X016 (ip), vehicle: saline) was 121 % of control. For the same molecule, the T/C (T/C endpoint: mean survival time, dose: 256.0 mg/kg/injection, schedule: Q## X024 (ip), vehicle: saline) was 129 % of control, the T/C (T/C endpoint: mean survival time, dose: 266.0 mg/kg/injection, schedule: Q01DX001 (ip), vehicle: saline) was 137 % of control and the T/C (T/C endpoint: mean survival time, dose: 325.0 mg/kg/injection, schedule: Q01DX Z (ip), vehicle: saline) was 217 % of control. The T/C (T/C endpoint: mean survival time, dose: 400.0 mg/kg/injection, schedule: Q01DX001 (ip), vehicle: saline) was 245 % of control, the survivor count (T/C endpoint: mean survival time, dose: 400.0 mg/kg/injection, schedule: Q01DX Z (ip), vehicle: saline) was 6 of 6 and the survivor count (T/C endpoint: mean survival time, dose: 488.0 mg/kg/injection, schedule: Q01DX Z (ip), vehicle: saline) was 0 of 6. For the same molecule, the T/C (T/C endpoint: mean survival time, dose: 500.0 mg/kg/injection, schedule: Q01DX001 (ip), vehicle: clinical formulation) was 109 % of control [4 of 6 alive], the T/C (T/C endpoint: mean survival time, dose: 500.0 mg/kg/injection, schedule: Q01DX001 (ip), vehicle: saline) was 146 % of control [5 of 6 alive] and the T/C (T/C endpoint: mean survival time, dose: 500.0 mg/kg/injection, schedule: Q01DX009 (oral), vehicle: saline) was 108 % of control. For the same molecule, the T/C (T/C endpoint: mean survival time, dose: 512.0 mg/kg/injection, schedule: Q01DX001 (ip), vehicle: saline) was 381 [9 of 10 alive] and 388 % of control [8 of 10 alive], the survivor count (T/C endpoint: mean survival time, dose: 512.0 mg/kg/injection, schedule: Q01DX001 (iv), vehicle: saline) was 6 of 10 and the T/C (T/C endpoint: mean survival time, dose: 512.0 mg/kg/injection, schedule: Q01DX001 (oral), vehicle: saline) was 125 % of control. For the same molecule, the T/C (T/C endpoint: mean survival time, dose: 512.0 mg/kg/injection, schedule: Q01DX001 (sc), vehicle: saline) was 111 % of control [9 of 10 alive], the T/C (T/C endpoint: mean survival time, dose: 512.0 mg/kg/injection, schedule: Q01DX009 (oral), vehicle: saline) was 93 % of control and the T/C (T/C endpoint: mean survival time, dose: 512.0 mg/kg/injection, schedule: Q04DX003 (ip), vehicle: saline) was 86 % of control [9 of 10 alive]. The survivor count (T/C endpoint: mean survival time, dose: 512.0 mg/kg/injection, schedule: Q04DX003 (iv), vehicle: saline) was 0 of 10, the T/C (T/C endpoint: mean survival time, dose: 512.0 mg/kg/injection, schedule: Q08DX002 (ip), vehicle: saline) was 197 % of control [8 of 10 alive] and the T/C (T/C endpoint: mean survival time, dose: 512.0 mg/kg/injection, schedule: Q## X002 (ip), vehicle: saline) was 132 % of control. The T/C (T/C endpoint: mean survival time, dose: 512.0 mg/kg/injection, schedule: Q## X003 (ip), vehicle: saline) was 87 % of control, the T/C (T/C endpoint: mean survival time, dose: 512.0 mg/kg/injection, schedule: Q## X008 (ip), vehicle: saline) was 215 % of control and the T/C (T/C endpoint: mean survival time, dose: 512.0 mg/kg/injection, schedule: Q## X016 (ip), vehicle: saline) was 176 % of control. For the same molecule, the T/C (T/C endpoint: mean survival time, dose: 512.0 mg/kg/injection, schedule: Q## X024 (ip), vehicle: saline) was 121 % of control, the T/C (T/C endpoint: mean survival time, dose: 600.0 mg/kg/injection, schedule: Q01DX001 (ip), vehicle: saline) was 148 and 247 % of control and the survivor count (T/C endpoint: mean survival time, dose: 750.0 mg/kg/injection, schedule: Q01DX001 (ip), vehicle: clinical formulation) was 2 of 6. For the same molecule, the survivor count (T/C endpoint: mean survival time, dose: 750.0 mg/kg/injection, schedule: Q01DX001 (ip), vehicle: saline) was 3 of 6, the T/C (T/C endpoint: mean survival time, dose: 900.0 mg/kg/injection, schedule: Q01DX001 (ip), vehicle: saline) was 225 % of control and the survivor count (T/C endpoint: mean survival time, dose: 1024.0 mg/kg/injection, schedule: Q01DX001 (ip), vehicle: saline) was 1 of 10 and 2 of 10. The survivor count (T/C endpoint: mean survival time, dose: 1024.0 mg/kg/injection, schedule: Q01DX001 (iv), vehicle: saline) was 0 of 10, the T/C (T/C endpoint: mean survival time, dose: 1024.0 mg/kg/injection, schedule: Q01DX001 (oral), vehicle: saline) was 114 % of control and the survivor count (T/C endpoint: mean survival time, dose: 1024.0 mg/kg/injection, schedule: Q01DX001 (sc), vehicle: saline) was 4 of 10. The survivor count (T/C endpoint: mean survival time, dose: 1024.0 mg/kg/injection, schedule: Q08DX002 (ip), vehicle: saline) was 3 of 10, the survivor count (T/C endpoint: mean survival time, dose: 1024.0 mg/kg/injection, schedule: Q## X002 (ip), vehicle: saline) was 3 of 10 and the survivor count (T/C endpoint: mean survival time, dose: 1024.0 mg/kg/injection, schedule: Q## X008 (ip), vehicle: saline) was 3 of 10. For the same molecule, the survivor count (T/C endpoint: mean survival time, dose: 1024.0 mg/kg/injection, schedule: Q## X016 (ip), vehicle: saline) was 6 of 10, the T/C (T/C endpoint: mean survival time, dose: 1350.0 mg/kg/injection, schedule: Q01DX001 (ip), vehicle: saline) was 95 % of control and the survivor count (T/C endpoint: mean survival time, dose: 2048.0 mg/kg/injection, schedule: Q01DX001 (oral), vehicle: saline) was 6 of 10. The T/C (T/C endpoint: median survival time, dose: 108.0 mg/kg/injection, schedule: Q04DX003 (ip), vehicle: steroid suspending solution) was 150 % of control, the T/C (T/C endpoint: median survival time, dose: 108.0 mg/kg/injection, schedule: Q04DX003 (sc), vehicle: steroid suspending solution) was 100 % of control and the T/C (T/C endpoint: median survival time, dose: 180.0 mg/kg/injection, schedule: Q01DX001 (ip), vehicle: steroid suspending solution) was 140 % of control. For the same molecule, the T/C (T/C endpoint: median survival time, dose: 180.0 mg/kg/injection, schedule: Q01DX001 (sc), vehicle: steroid suspending solution) was 110 % of control, the T/C (T/C endpoint: median survival time, dose: 180.0 mg/kg/injection, schedule: Q04DX003 (ip), vehicle: steroid suspending solution) was 130 % of control and the T/C (T/C endpoint: median survival time, dose: 180.0 mg/kg/injection, schedule: Q04DX003 (sc), vehicle: steroid suspending solution) was 110 % of control. The T/C (T/C endpoint: median survival time, dose: 300.0 mg/kg/injection, schedule: Q01DX001 (ip), vehicle: steroid suspending solution) was 145 % of control, the T/C (T/C endpoint: median survival time, dose: 300.0 mg/kg/injection, schedule: Q01DX001 (sc), vehicle: steroid suspending solution) was 110 % of control and the T/C (T/C endpoint: median survival time, dose: 300.0 mg/kg/injection, schedule: Q04DX003 (ip), vehicle: steroid suspending solution) was 185 % of control. The T/C (T/C endpoint: median survival time, dose: 300.0 mg/kg/injection, schedule: Q04DX003 (sc), vehicle: steroid suspending solution) was 130 % of control, the T/C (T/C endpoint: median survival time, dose: 500.0 mg/kg/injection, schedule: Q01DX001 (ip), vehicle: steroid suspending solution) was 160 % of control and the survivor count (T/C endpoint: median survival time, dose: 500.0 mg/kg/injection, schedule: Q01DX001 (sc), vehicle: steroid suspending solution) was 4 of 8. The survivor count (T/C endpoint: median survival time, dose: 500.0 mg/kg/injection, schedule: Q04DX003 (ip), vehicle: steroid suspending solution) was 8 of 8, the T/C (T/C endpoint: median survival time, dose: 500.0 mg/kg/injection, schedule: Q04DX003 (sc), vehicle: steroid suspending solution) was 110 % of control [6 of 8 alive] and the survivor count (T/C endpoint: median survival time, dose: 833.0 mg/kg/injection, schedule: Q01DX001 (ip), vehicle: steroid suspending solution) was 7 of 8. For the same molecule, the survivor count (T/C endpoint: median survival time, dose: 833.0 mg/kg/injection, schedule: Q01DX001 (sc), vehicle: steroid suspending solution) was 0 of 8.
